Laboratory results: the supplement of paper PMC7661543
Differences between knockout arms are mostly noise.

Tested on: BT-20
Test: relative cell number vs DMSO control (72 h) (% of DMSO); higher = less growth inhibition (more cells)
Procedure: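 QMAP-Seq: a pool of 5 breast cancer cell lines (ZR-75-1, SKBR3, HCC-38, MDA-MB-231, BT-20), each carrying 12 doxycycline-inducible Cas9 sgRNA perturbations (11 knockouts plus non-targeting sgNT), was treated with compounds for 72 h at four 10-fold doses (10 nM-10 uM or 1 nM-1 uM range). Barcodes were amplified and sequenced, and cell number was interpolated from 293T spike-in standard curves. The result is expressed as % of the median of DMSO wells. Two biological replicates.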

Cc1ccc(C(=O)N(CCCN)[C@@H](c2oc3cc(Cl)ccc3c(=O)c2Cc2ccccc2)C(C)C)cc1
Conditions | relative cell number
sgRNA knockout: sgATF3, 10 nM | 27.7
sgRNA knockout: sgATF3, 100 nM | 25.1
sgRNA knockout: sgATF3, 1000 nM | 27.7
sgRNA knockout: sgATF3, 10000 nM | 4.79
sgRNA knockout: sgATF4, 10 nM | 27.9
sgRNA knockout: sgATF4, 100 nM | 30
sgRNA knockout: sgATF4, 1000 nM | 27.9
sgRNA knockout: sgATF4, 10000 nM | 5.41
sgRNA knockout: sgATF6, 10 nM | 26.8
sgRNA knockout: sgATF6, 100 nM | 27.5
sgRNA knockout: sgATF6, 1000 nM | 34.5
sgRNA knockout: sgATF6, 10000 nM | 4.77
sgRNA knockout: sgATG7, 10 nM | 29.6
sgRNA knockout: sgATG7, 100 nM | 27.7
sgRNA knockout: sgATG7, 1000 nM | 33.9
sgRNA knockout: sgATG7, 10000 nM | 6.02
sgRNA knockout: sgERN1, 10 nM | 32.4
sgRNA knockout: sgERN1, 100 nM | 22.2
sgRNA knockout: sgERN1, 1000 nM | 32
sgRNA knockout: sgERN1, 10000 nM | 5.59
sgRNA knockout: sgHSF1, 10 nM | 28.9
sgRNA knockout: sgHSF1, 100 nM | 21.3
sgRNA knockout: sgHSF1, 1000 nM | 34.2
sgRNA knockout: sgHSF1, 10000 nM | 3.45
sgRNA knockout: sgHSF2, 10 nM | 30.5
sgRNA knockout: sgHSF2, 100 nM | 23
sgRNA knockout: sgHSF2, 1000 nM | 32.4
sgRNA knockout: sgHSF2, 10000 nM | 7.06
sgRNA knockout: sgKEAP1, 10 nM | 29.2
sgRNA knockout: sgKEAP1, 100 nM | 25.4
sgRNA knockout: sgKEAP1, 1000 nM | 30.4
sgRNA knockout: sgKEAP1, 10000 nM | 5.4
sgRNA knockout: sgNFE2L2, 10 nM | 30.7
sgRNA knockout: sgNFE2L2, 100 nM | 26.2
sgRNA knockout: sgNFE2L2, 1000 nM | 37
sgRNA knockout: sgNFE2L2, 10000 nM | 7.43
sgRNA knockout: sgSLC35F2, 10 nM | 28.3
sgRNA knockout: sgSLC35F2, 100 nM | 31.9
sgRNA knockout: sgSLC35F2, 1000 nM | 35.2
sgRNA knockout: sgSLC35F2, 10000 nM | 3.76
sgRNA knockout: sgXBP1, 10 nM | 27
sgRNA knockout: sgXBP1, 100 nM | 25.9
sgRNA knockout: sgXBP1, 1000 nM | 31.3
sgRNA knockout: sgXBP1, 10000 nM | 6.05

c1ccc2c(Oc3nc(Nc4ccc(N5CCOCC5)cc4)c4ncn(C5CCCCC5)c4n3)cccc2c1 [Purmorphamine]
Conditions | relative cell number
sgRNA knockout: sgATF3, 10 nM | 100
sgRNA knockout: sgATF3, 100 nM | 107
sgRNA knockout: sgATF3, 1000 nM | 89.1
sgRNA knockout: sgATF3, 10000 nM | 78.2
sgRNA knockout: sgATF4, 10 nM | 102
sgRNA knockout: sgATF4, 100 nM | 101
sgRNA knockout: sgATF4, 1000 nM | 102
sgRNA knockout: sgATF4, 10000 nM | 83.3
sgRNA knockout: sgATF6, 10 nM | 115
sgRNA knockout: sgATF6, 100 nM | 88.8
sgRNA knockout: sgATF6, 1000 nM | 99.2
sgRNA knockout: sgATF6, 10000 nM | 97.9
sgRNA knockout: sgATG7, 10 nM | 89.5
sgRNA knockout: sgATG7, 100 nM | 97.5
sgRNA knockout: sgATG7, 1000 nM | 90.7
sgRNA knockout: sgATG7, 10000 nM | 83.6
sgRNA knockout: sgERN1, 10 nM | 91.1
sgRNA knockout: sgERN1, 100 nM | 96.4
sgRNA knockout: sgERN1, 1000 nM | 107
sgRNA knockout: sgERN1, 10000 nM | 77.4
sgRNA knockout: sgHSF1, 10 nM | 85.6
sgRNA knockout: sgHSF1, 100 nM | 87.1
sgRNA knockout: sgHSF1, 1000 nM | 90.7
sgRNA knockout: sgHSF1, 10000 nM | 80.4
sgRNA knockout: sgHSF2, 10 nM | 96.3
sgRNA knockout: sgHSF2, 100 nM | 89.2
sgRNA knockout: sgHSF2, 1000 nM | 84.1
sgRNA knockout: sgHSF2, 10000 nM | 72
sgRNA knockout: sgKEAP1, 10 nM | 98.7
sgRNA knockout: sgKEAP1, 100 nM | 80.6
sgRNA knockout: sgKEAP1, 1000 nM | 90.9
sgRNA knockout: sgKEAP1, 10000 nM | 75.3
sgRNA knockout: sgNFE2L2, 10 nM | 107
sgRNA knockout: sgNFE2L2, 100 nM | 91.2
sgRNA knockout: sgNFE2L2, 1000 nM | 115
sgRNA knockout: sgNFE2L2, 10000 nM | 80.3
sgRNA knockout: sgSLC35F2, 10 nM | 116
sgRNA knockout: sgSLC35F2, 100 nM | 105
sgRNA knockout: sgSLC35F2, 1000 nM | 94.1
sgRNA knockout: sgSLC35F2, 10000 nM | 77.81
sgRNA knockout: sgXBP1, 10 nM | 98.1
sgRNA knockout: sgXBP1, 100 nM | 107
sgRNA knockout: sgXBP1, 1000 nM | 81.4
sgRNA knockout: sgXBP1, 10000 nM | 76.5

CC(C)(C#N)c1cc(Cn2cncn2)cc(C(C)(C)C#N)c1 [Anastrozole]
Conditions | relative cell number
sgRNA knockout: sgATF3, 1 nM | 122
sgRNA knockout: sgATF3, 10 nM | 108
sgRNA knockout: sgATF3, 100 nM | 100.7
sgRNA knockout: sgATF3, 1000 nM | 108
sgRNA knockout: sgATF4, 1 nM | 118
sgRNA knockout: sgATF4, 10 nM | 109
sgRNA knockout: sgATF4, 100 nM | 117
sgRNA knockout: sgATF4, 1000 nM | 102
sgRNA knockout: sgATF6, 1 nM | 123
sgRNA knockout: sgATF6, 10 nM | 115
sgRNA knockout: sgATF6, 100 nM | 114
sgRNA knockout: sgATF6, 1000 nM | 103
sgRNA knockout: sgATG7, 1 nM | 122
sgRNA knockout: sgATG7, 10 nM | 98.6
sgRNA knockout: sgATG7, 100 nM | 101
sgRNA knockout: sgATG7, 1000 nM | 99.2
sgRNA knockout: sgERN1, 1 nM | 121
sgRNA knockout: sgERN1, 10 nM | 106
sgRNA knockout: sgERN1, 100 nM | 96
sgRNA knockout: sgERN1, 1000 nM | 101
sgRNA knockout: sgHSF1, 1 nM | 123
sgRNA knockout: sgHSF1, 10 nM | 104
sgRNA knockout: sgHSF1, 100 nM | 118
sgRNA knockout: sgHSF1, 1000 nM | 105
sgRNA knockout: sgHSF2, 1 nM | 120
sgRNA knockout: sgHSF2, 10 nM | 116
sgRNA knockout: sgHSF2, 100 nM | 109
sgRNA knockout: sgHSF2, 1000 nM | 112
sgRNA knockout: sgKEAP1, 1 nM | 118
sgRNA knockout: sgKEAP1, 10 nM | 93.9
sgRNA knockout: sgKEAP1, 100 nM | 105
sgRNA knockout: sgKEAP1, 1000 nM | 114.8
sgRNA knockout: sgNFE2L2, 1 nM | 116
sgRNA knockout: sgNFE2L2, 10 nM | 120
sgRNA knockout: sgNFE2L2, 100 nM | 113.8
sgRNA knockout: sgNFE2L2, 1000 nM | 100
sgRNA knockout: sgSLC35F2, 1 nM | 96.6
sgRNA knockout: sgSLC35F2, 10 nM | 123
sgRNA knockout: sgSLC35F2, 100 nM | 113
sgRNA knockout: sgSLC35F2, 1000 nM | 95.1
sgRNA knockout: sgXBP1, 1 nM | 125
sgRNA knockout: sgXBP1, 10 nM | 128
sgRNA knockout: sgXBP1, 100 nM | 106
sgRNA knockout: sgXBP1, 1000 nM | 110
